According to PubChem BioAssay AID624297 (National Center for Advancing Translational Sciences (NCATS), 2012):
Out of some 340,000 compounds screened, about 6,200 (1.8%) were called active. This list was built around the results that the source calls inconclusive (neither active nor inactive); the mix of calls is not that of the screen. Calls follow the shape of the dose curve; as a rule, active = well fitted activation curve with a large enough effect; inconclusive = small, poorly fitted or top-dose-only effect; inactive = no such curve, though single readings can be large or run the other way. Potencies of inconclusive entries are doubtful fits and often do not repeat.

test: A quantitative high throughput screen for small molecules that induce DNA re-replication in SW480 colon adenocarcinoma cells.; also: nearly all actives have a fitted effect of over 55% in size; as to re-replication activation: % of control where 0% means no effect; details: Hoechst DNA content imaging, 48 h; re-replication activation: at 46.1 µM (top of the series) unless noted
Method in brief: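 Quantitative HTS format with DMSO vehicle controls; 48 hr drug incubation at 37 C, then 40 min Hoechst staining and scanning imager measurement at 405 nm excitation.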
Potency is read from the fitted curve at half-maximal effect.

SMILES | Potency | re-replication activation
Cn1cnnc1SCC(=O)c1ccc2c(c1)OCCO2 | inconclusive: 29.1 µM [activator, single point] | 
COc1cccc(NC(=O)CN(C)C(=O)c2cc(-c3ccccc3)nn2-c2ccccc2)c1 |  | inactive: -7.32%
CCCCN(CC)CCCNC(=S)Nc1ccc2nc(N3CCN(CC)CC3)cc(C)c2c1 | inconclusive: 29.1 µM [activator, single point] | 
O=S(=O)(c1ccccc1)c1nc(Nc2ccccc2N2CCOCC2)sc1Cl |  | inactive: 0.514%
Cc1ccc(N2C(=O)C3C4C=CC(CNC(=S)Nc5cccc(Cl)c5)(O4)C3C2=O)cc1 (configuration not stated) | inconclusive: 16.4 µM [activator, partial curve, poor fit] | 
Cc1ccc(-c2cc(C(=O)N/N=C/c3c[nH]c4ccccc34)n[nH]2)o1 | active: 3.66 µM | 
O=C(OC1CCOC1=O)C1CCN(S(=O)(=O)c2ccc(Cl)c(C(F)(F)F)c2)CC1 (configuration not stated) | inconclusive: 32.6 µM [activator, single point] | 
Cc1cc(N2CCC(C)CC2)nc(NCc2ccccc2)n1 | active: 0.517 µM | 
COCCNC(=O)C1=C(N)C(C(=O)Nc2ccc(C)c(S(=O)(=O)N3CCCCC3)c2)SC1=Nc1ccc(C)cc1C (configuration not stated) | inconclusive: 29.1 µM [activator, partial curve, poor fit] | 
CCc1ccc2c(c1)C(O)(CC(=O)c1cccs1)C(=O)N2 (configuration not stated) |  | inactive: -0.813%
CC(=O)c1ccc(S(=O)(=O)N2CCN(C(=O)/C=C/c3ccc4ccccc4n3)CC2)cc1 | inconclusive: 18.4 µM [activator, single point] | 
C=CCn1c(O)c(N=NC(=O)CNC(=O)Cc2ccccc2)c2ccccc21 | inconclusive: 0.517 µM [activator, partial curve, poor fit] | 
C=CCOC(=O)C1=C(C)NC(SC)=C(C#N)C1c1cccs1 (configuration not stated) | inconclusive: 29.1 µM [activator, single point] | 
O=C(CN1CCCCCCC1)NC(=O)NC1CCCCC1 |  | inactive: -2.52%
CC(C)(C)c1ccc(C(=O)O)c(C(=O)c2ccccc2)c1 | inconclusive: 29.1 µM [activator, single point] | 
CCOc1ccc(N2C(=O)C3ON(c4ccccc4)C(c4cccs4)C3C2=O)cc1 (configuration not stated) | inconclusive: 0.103 µM [activator, full curve, poor fit] | 
O=C(NC(=S)Nc1cccc(C(F)(F)F)c1)c1ccc2nonc2c1 | inconclusive: 25.9 µM [activator, single point] | 
CN(C)c1ccc(NC(=O)c2ccc(Cn3cc([N+](=O)[O-])cn3)cc2)cc1 | inconclusive: 9.2 µM [activator, partial curve, poor fit] | 
COc1ccccc1C1NC(=O)NC(C)=C1C(C)=O (configuration not stated) | inconclusive: 29.1 µM [activator, single point] | 
Cc1nn(-c2ccccc2)c(Cl)c1C(=O)N1CCN(c2ncnc3c2cnn3-c2ccccc2)CC1 | inconclusive: 20.6 µM [activator, single point] | 
Cc1ccc(NC(=O)CCS(=O)(=O)c2ccc3c(c2)NC(=O)C(C)S3)cc1Cl (configuration not stated) | inconclusive: 29.1 µM [activator, single point] | 
O=C(CN(C(=O)CNC(=O)c1cccs1)c1ccccc1F)NC1CCCCC1 | inconclusive: 29.1 µM [activator, single point] | 
Cc1cccc(NC(=S)NCc2ccc(F)cc2)c1 |  | inconclusive: 902% [activator]

SMILES | Potency | re-replication activation
CSc1ccc(/C=N/Nc2nc(C)cc(C)n2)cc1 |  | inactive: -4.37%
O=C1C(Cl)=C(NCc2cccnc2)C(=O)c2ccccc21 | inconclusive: 29.1 µM [activator, single point] | 
O=[N+]([O-])c1ccc2nc(-c3ccccn3)[nH]c2c1 | inconclusive: 29.1 µM [activator, single point] | 
O=C(NCc1cccc(Cl)c1)c1ccc(N2CC3CC(C2)c2cccc(=O)n2C3)c(NC(=O)c2cccnc2)c1 (configuration not stated) |  | inactive: -0.3%
Cc1n[nH]c(=S)n1/N=C/c1ccc(OCc2ccc(Cl)cc2)cc1 |  | inactive: -10.4%
Cc1c(OC(C)C(=O)NCc2ccncc2)ccc2c3c(c(=O)oc12)CCC3 (configuration not stated) | inconclusive: 29.1 µM [activator, single point] | 
COc1cc(OC)cc(C(=O)N2CC(=O)Nc3ccccc32)c1 | active: 3.26 µM | 
COc1ccc(CCn2c(=N)c(S(=O)(=O)c3ccc(Cl)cc3)cc3c(=O)n4ccccc4nc32)cc1 | inconclusive: 9.2 µM [activator, partial curve] | 
COc1cccc(/C=N/NC(=O)CC(C)O)c1OC/C=C/c1ccccc1 (configuration not stated) | inconclusive: 29.1 µM [activator, single point] | 
Cc1nc(NCc2ccco2)c2c(C)c(C)sc2n1 | inconclusive: 5.8 µM [activator, full curve] | 
Cc1nc2ccccc2c2oc(C(=O)NCCCN3CCCC(C)C3)cc12 (configuration not stated) | inconclusive: 23.1 µM [activator, single point] | 
CCN(CC)CCCN=C1N[C@@H](c2cccc(C(F)(F)F)c2)C(C(=O)OC)=C(C)N1CC | inconclusive: 29.1 µM [activator, single point] | 
CC1CCCC(NC(=O)C2N(CCCN3CCCC3)C(=O)C3C(C(=O)Nc4ccc(Cl)cc4)C4C=CC32O4)C1C (configuration not stated) | inconclusive: 23.1 µM [activator, partial curve, poor fit] | 
CCOc1ncccc1C(=O)Nc1ccc(F)c(F)c1 |  | inactive: -7.04%
CC(=O)Nc1ccc(C2=NNC(=Nc3ccc(S(=O)(=O)N4CCOCC4)cc3)SC2)cc1 | inconclusive: 20.6 µM [activator, single point] | 
O=C(OCC1COc2ccccc2O1)c1c(F)cccc1F (configuration not stated) | inconclusive: 25.9 µM [activator, single point] | 
O=C(Nc1nnc(SCc2ccc(Cl)cc2)s1)C1CC(=O)N(Cc2ccccc2)C1 (configuration not stated) | inconclusive: 18.4 µM [activator, partial curve, poor fit] | 
COc1ccc(/C=N/NC(=O)c2ccn[nH]2)cc1COc1ccc(Cl)cc1 | inconclusive: 22.4 µM [activator, single point] | 
Cc1cccc(NC(=O)NNC(=O)c2ccc3ccccc3c2O)c1 | inconclusive: 1.3 µM [activator, full curve, poor fit] | 
Cc1oc(-c2ccc(Cl)cc2)nc1CN1CCC(C(=O)N2CCN(Cc3ccccc3)CC2)CC1 | inconclusive: 29.1 µM [activator, partial curve, poor fit] | 
CCN(CC)S(=O)(=O)c1ccc(/C(O)=C(\C#N)c2nc3ccccc3n2C)cc1 |  | inactive: 16.6%
CC1CCN(S(=O)(=O)c2ccc3c(c2)N(CC(=O)NCCCN2CCCC(C)C2)C(=O)CO3)CC1 (configuration not stated) | inconclusive: 29.1 µM [activator, partial curve, poor fit] | 
CCCCCC/C(=N/O)c1ccccn1 | inconclusive: 29.1 µM [activator, single point] | 

SMILES | Potency | re-replication activation
CCOc1ccc(/C=N/NC(=S)Nc2c(C)cccc2C)cc1 | inconclusive: 35.5 µM [activator, single point] | 
C/C(=N\NC(=S)NCc1ccccc1)C1CCCCC1 | inconclusive: 1 µM [activator, full curve, poor fit] | 
N=c1sc2ccccc2n1-c1ccccc1 | inconclusive: 18.4 µM [activator, single point] | 
CCCc1ccc(-c2c(C)sc(N)c2C#N)cc1 |  | inactive: 1.41%
CN(C)S(=O)(=O)N1CCN(CC(=O)Nc2ccc(Br)cc2)CC1 | inconclusive: 18.4 µM [activator, single point] | 
COc1cccc(C2=NOC(C(=O)NCc3ccco3)C2)c1 (configuration not stated) | inconclusive: 23.1 µM [activator, single point] | 
Oc1ccc(Nc2nc(-c3ccc(O)cc3)cs2)cc1 | inconclusive: 28.2 µM [activator, partial curve, poor fit] | 
CCC1Nc2ncnc(N3CCN(c4ccccn4)CC3)c2N(Cc2ccc(Cl)cc2)C1=O (configuration not stated) | inconclusive: 0.0041 µM [activator, full curve, poor fit] | 
CC1CCCC(NC(=O)CN2CCN(S(=O)(=O)c3cccs3)CC2)C1C (configuration not stated) |  | inactive: -0.219%
COc1ccc(NCc2n[nH]c(=O)c3ccccc23)cc1 |  | inactive: 2.77%
C=CCOc1ccc2c(c1)CCC1C2CCC2(C)C(O)C(O)CC12 (configuration not stated) | inconclusive: 23.1 µM [activator, single point] | 
Cc1ccc(NC(=O)c2c([N+](=O)[O-])c(C(C)(C)C)nn2C)cc1 |  | inactive: -4.01%
COc1ccc(-c2oc3ccc(-c4cc(OC)c(OC)c(OC)c4)cc3c2-c2ccc(OC)nc2)cc1 |  | inactive: 3.36%
COc1ccc(CN(C)CC2CCCN(CCc3ccccc3C)C2)cc1O (configuration not stated) |  | inactive: 15.9%
Cc1cc(C)nc(SCC(=O)NN=C2CCCC2)n1 | inconclusive: 0.092 µM [activator, full curve, poor fit] | 
N#Cc1nc(Cc2ccccc2)oc1NCc1ccccc1 |  | inactive: -1.93%
COc1ccc(C(=O)CC(=O)C(=O)Nc2cccc(C(C)=O)c2)cc1 |  | inactive: 2.4%
CCN(CC)CC(O)Cn1c2ccccc2c2ccccc21 (configuration not stated) | inconclusive: 29.1 µM [activator, single point] | 
CN(c1cccc(Cl)c1)S(=O)(=O)c1cccc(C(=O)Nc2ccc3c(c2)CCC3)c1 | inconclusive: 32.6 µM [activator, partial curve, poor fit] | 
C=CCNC(=O)c1ccc(S(=O)(=O)CC)c(Cl)c1Cl | inconclusive: 14.6 µM [activator, partial curve, poor fit] | 
CC(C)(C)c1cc(P(=O)(c2ccccc2)c2ccccc2)ccc1O | inconclusive: 20.6 µM [activator, single point] | 

Single values from above.
re-replication activation, Cc1ccc(NC(=O)c2c([N+](=O)[O-])c(C(C)(C)C)nn2C)cc1 is entered as inactive: -4.01%
Potency, CCC1Nc2ncnc(N3CCN(c4ccccn4)CC3)c2N(Cc2ccc(Cl)cc2)C1=O (configuration not stated) is entered as inconclusive: 0.0041 µM [activator, full curve, poor fit]

Filtered by structure: the compounds so far with a nitro group on carbon.
SMILES | Potency | re-replication activation
CN(C)c1ccc(NC(=O)c2ccc(Cn3cc([N+](=O)[O-])cn3)cc2)cc1 | inconclusive: 9.2 µM [activator, partial curve, poor fit] | 
O=[N+]([O-])c1ccc2nc(-c3ccccn3)[nH]c2c1 | inconclusive: 29.1 µM [activator, single point] | 
Cc1ccc(NC(=O)c2c([N+](=O)[O-])c(C(C)(C)C)nn2C)cc1 |  | inactive: -4.01%
